These results are taken from patent US6207644A (Zeneca Limited, priority 1996, dated 2001).

A short description of this data set: general procedure: Fmoc solid-phase peptide synthesis; Fmoc-Rink Amide MBHA resin; HBTU/HOBT/DIPEA. The following applies: whole synthesis, scale 1 mmol, acetate salt.

Some peptides are written in HELM: one residue between dots, names in brackets for other building blocks, links after the first $.

Turning to “PEPTIDE1{[Phv].R.A.A.[IIb].A.A.A.[Papa].[am]}$$$$V2.0”, the isolated mass (run 1) is 700 mg and the isolated mass (run 2) was 476 mg.
